Measurements reported in PMC11182588.
Results are given in words; binding and its absence hold for the method and conditions named. Binding can be weak; no strength is given.

By UniProt entry, the sequences of proteins in these tests, tags left out. Where a name states a change or a piece, a line headed by the entry shows the natural chain unless it says otherwise.
UniProt A0A3B6DLT0: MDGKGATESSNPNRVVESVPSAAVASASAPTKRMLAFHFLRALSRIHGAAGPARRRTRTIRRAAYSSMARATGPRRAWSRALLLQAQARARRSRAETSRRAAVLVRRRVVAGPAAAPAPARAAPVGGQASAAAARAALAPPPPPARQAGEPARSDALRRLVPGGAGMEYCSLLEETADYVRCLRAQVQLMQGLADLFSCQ

Biological target: GST-TaSnRK1α1 (wheat (Triticum aestivum, cDNA of Chinese Spring))
Experiment: pull-down; GST-TaSnRK1α1 (1 μg) on glutathione agarose beads incubated with MBP-TabHLH489 (1 μg) or MBP (1 μg) at 4 °C for 1 h; beads washed six times; immunoblot with anti-MBP; both purified

For MBP-TabHLH489 (from UniProt A0A3B6DLT0), the binding was “binds”.
